Assay results reported in patent publication US5373012A, “5-fluoro-2,4,6-pyrimidinetriamine compounds” (The Upjohn Company, priority 1993, dated 1994).
At least one compound was matched to its structure with a doubt left.

Key:
[1] = cardiovascular effects in vivo in conscious beagle dogs (mean arterial pressure, heart rate); conditions: 1.5 mg/kg, N=1
Procedure: The 5-fluoro minoxidil compounds were evaluated for cardiovascular effects in an in vivo test with beagle dogs. This test procedure is described in Humprey SJ, Zins GR, Whole Body and Regional Hemodynamic Effects of Minoxidil in the Conscious Dog, J. Card, Pharm. 6:979-88 (1984) and in Humprey, S.J., Zins, G.R., The Effects of Indomethacin on the Systemic and Regional Vasodilator Responses to Minoxidil in the Conscious Dog, Chem. Path. & Pharm. 59:1 3-20 (1988). Experiments were conducted using a radiolabeled tracer microspheres technique, Wagner NH et al., Studies of the Circulation with Radioactive Microspheres, Invest. Radiol. 4:374-86 (1969), with conscious beagle dogs. The results of a rapid evaluation (N=1) of the 5-fluoro minoxidil compound compared to minoxidil are presented in FIG. 1 change in Mean Arterial Pressure versus Time at the doses indicated and FIG. 2 Changes in Heart Rate versus Time at the doses indicated.

[2] = in vivo hair growth assay using rats (shaved hair weighed every seven days); conditions: 100 mM minoxidil vs 25 mM 5-fluoro-minoxidil
Procedure: The 5-fluoro minoxidil compounds were evaluated for hair growth in an in vivo hair growth assay using rats. Each rat is dosed with vehicle and drug, 200-500 microliters per day, 5 days per week. Every seven days the treated areas are shaved and the hair removed is weighed to compare normal untreated hair growth to the drug treated hair growth.

Nc1nc(N2CCCCC2)c(F)c(N)[n+]1[O-] [5-fluoro minoxidil, 5-Fluoro-6-piperidinyl-2,4-pyrimidinediamine, 3-Oxide]
change in Heart Rate ([1]; FIG. 2, 5-fluoro minoxidil compared to minoxidil): increases in heart rate
activity compared to minoxidil ([1]; dog model): at a minimum equivalent to minoxidil
statistical difference (p) between the two agents in level of hair growth stimulation [2]: no statistical difference
